Source: the supplement of paper PMC12823440, “Inhibitors supercharge kinase turnover through native proteolytic circuits” (Nature, 2025)
Structures can show the parent of a compound that is named as a salt. This is one part of the list. Hit calls seldom repeat between salt and free forms of one compound.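 Kinases, fused to nanoluciferase, were expressed in K562 cells; luminescence was measured every 4 h from 2 to 18 h as percent of control (DMSO = 100%, positive control = 0%). A time point is decreased if signal falls significantly (2 sigma). Hits were called by the authors by a rule that is not shown; the count of time points alone does not decide it.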

The chains behind the UniProt entries cited, without tags or fusion partners. Where a name states a change or a piece, a line headed by the entry shows the natural chain unless it says otherwise.
UniProt P51451: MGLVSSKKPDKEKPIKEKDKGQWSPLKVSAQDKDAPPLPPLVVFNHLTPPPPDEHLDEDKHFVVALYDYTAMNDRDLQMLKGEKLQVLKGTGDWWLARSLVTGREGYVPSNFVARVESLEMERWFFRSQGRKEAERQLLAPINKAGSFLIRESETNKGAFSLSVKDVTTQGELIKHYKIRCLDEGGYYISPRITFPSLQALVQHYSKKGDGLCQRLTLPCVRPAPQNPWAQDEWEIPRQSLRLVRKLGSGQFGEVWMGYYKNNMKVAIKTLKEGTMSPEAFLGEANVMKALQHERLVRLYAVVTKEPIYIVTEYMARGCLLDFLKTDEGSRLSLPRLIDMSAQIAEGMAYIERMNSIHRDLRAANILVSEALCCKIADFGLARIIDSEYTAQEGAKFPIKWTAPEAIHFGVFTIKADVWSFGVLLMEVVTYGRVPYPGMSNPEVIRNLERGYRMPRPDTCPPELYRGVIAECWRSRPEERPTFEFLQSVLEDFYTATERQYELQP

target: BLK (UniProt P51451); experiment: kinase-Nluc reporter destabilization hit call (1 = scored as downregulated) (binary); higher = compound decreases kinase abundance; conditions: K562; 2-18 h

kinase-Nluc reporter destabilization hit call, inactive:
O=c1cc(O)cc(/C=C/c2ccc(O)c(O)c2)o1 [Hispidin] (10 µM) 0, CC1CN(C(=O)Nc2ccc(Cl)c(Cl)c2)C(=Nc2ccc(F)cc2)S1 (stereo not drawn) (10 µM) 0, COc1cc2c[n+](C)c3c4cc5c(cc4ccc3c2cc1OC)OCO5 [Nitidine (chloride)] (2 µM) 0, Cc1c(CN2CCN(S(C)(=O)=O)CC2)sc2c(N3CCOCC3)nc(-c3cnc(N)nc3)nc12 (2.5 µM) 0, Cc1cc([C@H](C)Nc2ccccc2)c2oc(N3CCOCC3)cc(=O)c2c1 (10 µM) 0, O=C(CNC(=O)c1ccc(-c2ccccc2)cc1)NC1CCCc2ccccc21 (stereo not drawn) [TAO Kinase inhibitor 1] (10 µM) 0, Cn1cc(-c2ccc(CNc3cc(-c4cnc5cc(OCCCN6CCCC6)ccn45)ncn3)cc2)cn1 (10 µM) 0, Cc1ccc(S(=O)(=O)Nc2ccccc2C=Nc2ccccc2NS(=O)(=O)c2ccc(C)cc2)cc1 (10 µM) 0, O=C(/C=C/c1ccc(O)c(O)c1)c1ccc(O[C@@H]2O[C@H](CO)[C@@H](O)[C@H](O)[C@H]2O)c(O)c1O [Marein] (10 µM) 0, O=C(NCCCNc1nc(Nc2cccc(NC(=O)N3CCCC3)c2)ncc1I)c1cccs1 (2.5 µM) 0, CN(CCNc1ccc2ncc(-c3ccc(C(N)=O)cc3)n2n1)C(=O)OC(C)(C)C (10 µM) 0, C=C(C)C(=O)Nc1cccc(-c2ncnc3[nH]cc(C(=O)OCC)c23)c1 (10 µM) 0, COc1ccc(C(=C2C(=O)Nc3ccccc32)c2ccc(OC)cc2)cc1 (10 µM) 0, CN1CCN(c2ccc(C(=O)Nc3cc(-c4cccc(NS(=O)(=O)c5ccccc5)c4)[nH]n3)cc2)CC1 [BPR1J-097 Hydrochloride] (2.5 µM) 0, C=CC(=O)Nc1cc2c(Nc3ccc(OCc4ccccn4)c(Cl)c3)ncnc2cc1OCCN1CCOCC1 (10 µM) 0, Cc1c(NC(=O)OC[C@@H]2COCCN2)cn2ncnc(Nc3ccc4c(cnn4Cc4cccc(F)c4)c3)c12 (10 µM) 0, CNc1nc(Nc2cnn(C3CCN(C4COC4)CC3F)c2Cl)ncc1C(F)(F)F (stereo not drawn) (10 µM) 0, O=C(NCCO)c1ccc2c(c1)nc(Nc1cccc(Cl)c1)c1ccncc12 [CK2 inhibitor 2] (10 µM) 0, N#CC(c1ccnc(NCCc2cccnc2)n1)c1nc2ccccc2s1 (stereo not drawn) (10 µM) 0, CCN(CC)S(=O)(=O)c1ccc(OC)c(N2CCN(C(=O)c3ccc(F)cc3C(F)(F)F)CC2)c1 (10 µM) 0, CO[C@H]1C[C@@H]2CC[C@@H](C)[C@@](O)(O2)C(=O)C(=O)N2CCCC[C@H]2C(=O)O[C@H]([C@H](C)C[C@@H]2CC[C@@H](O)[C@H](OC)C2)CC(=O)[C@H](C)/C=C(\C)[C@@H](O)[C@@H](OC)C(=O)[C@H](C)C[C@H](C)/C=C/C=C/C=C/1C [Rapamycin] (10 µM) 0, CN(C)CCN(Cc1ccc(Cl)cc1)c1ccccn1 [Chloropyramine hydrochloride] (10 µM) 0, O=C(Nc1ccc(F)cc1F)[C@H](NC(=S)Nc1cc(C(F)(F)F)cc(C(F)(F)F)c1)c1ccccc1 (2.5 µM) 0, Cc1ccc(Nc2cc(-c3cccc(N4C(=O)c5ccccc5C4=O)c3)ncn2)cc1NS(C)(=O)=O (10 µM) 0, CC(C)(C)c1ccc(S(=O)(=O)Nc2ccc(-n3ccnc3)cc2)cc1 (10 µM) 0, CCc1cc(O)c(F)cc1-c1ccc2c(-c3nc4c([nH]3)CN(C3CCN(C)CC3)CC4)n[nH]c2c1 [JAK-IN-5 (hydrochloride)] (2 µM) 0, CC1=C2C(=O)O[C@@H](c3ccoc3)[C@]2(C)CCC1 [Fraxinellone] (10 µM) 0, COc1cc(C(N)=O)nc(-c2cccc(C#C[C@]3(O)CCN(C)C3=O)c2)c1 (10 µM) 0, COc1ncc(-c2nc(N3CCOCC3)nc3c(CN4CCC(C(C)(C)O)CC4)cc(F)cc23)cc1NS(C)(=O)=O [Linperlisib] (10 µM) 0, Fc1ccc(-c2nc(-c3ccccc3F)[nH]c2-c2ccncc2)cc1 (2.5 µM) 0, CC(C)=CC[C@H](O)C1=CC(=O)c2c(O)ccc(O)c2C1=O [(-)-Alkannin] (2.5 µM) 0, CC(C)c1cnc(-c2cc(Cl)ccc2F)cc1Nc1ccncc1C(=O)NC(CO)CO (2.5 µM) 0, Cn1cnc(-c2cc3nccc(Oc4ccc(NC(=S)NC(=O)Cc5ccccc5)cc4F)c3s2)c1 [MGCD-265 analog] (10 µM) 0, COC1(c2sc3c(N4CCOCC4)nc(-c4cnc(N)nc4)nc3c2C)COC1 (2.5 µM) 0, Cc1cc(NC(=O)c2cccc(NC(=O)/C=C/CN(C)C)c2)ccc1Nc1nccc(-c2cccnc2)n1 (10 µM) 0, O=C(/C=C/c1ccc(O)c(O)c1)OC1CC(OC(=O)/C=C/c2ccc(O)c(O)c2)(C(=O)O)CC(O)C1O (stereo not drawn) [1,3-Dicaffeoylquinic acid] (10 µM) 0, COc1ccc2c(c1O)OC(C)(C)c1c-2ccc2c1C(=O)N(c1ccc(C(=O)c3ccccc3)cc1)C2=O [Ampkinone] (10 µM) 0, CNC(=O)Nc1ccc(-c2cc(-c3ccnc(Nc4ccc(C)c(S(=O)(=O)N(C)C)c4)n3)ccn2)cc1 [hSMG-1 inhibitor 11e] (2.5 µM) 0
